# Measurements: PubChem BioAssay AID504444 (National Center for Advancing Translational Sciences (NCATS), 2011)
# Screen size: about 360,000 compounds; about 7,500 (2.1%) were called active. Inconclusive results, whose numbers are uncertain, are shown with a selection of clear calls. Calls follow the shape of the dose curve; as a rule, active = well fitted inhibition curve with a large enough effect; inconclusive = small, poorly fitted or top-dose-only effect, or effect the other way; inactive = flat fitted curve, though single readings scatter. A potency beside an inconclusive call is a rough fit, not a confirmed value.
# Experiment: Nrf2 qHTS screen for inhibitors; also: nearly all actives have a fitted effect of over 60% in size
# Settings: A549 ARE-Fluc reporter, luciferase luminescence, 18-24 h; activity change, negative = inhibition: at 46 µM (top of the series)
# Procedure, shortened: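 A549 ARE_Fluc cells (5000/well, 5% FBS OPTI-MEM) pre-incubated 2 h, then treated with compounds 18-24 h at 37C/5% CO2 in concentration-response. CellTiter-Fluor viability read first; BugLite luciferase luminescence after 15 min at room temperature gives Nrf2 activity.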
# % is scaled to controls: 0 for no effect and ±100 for the full control effect; potency is read from the fitted curve at half-maximal effect.
SMILES,Potency,"activity change, negative = inhibition"
O=C(Nc1ccc2c(c1)OCO2)c1nn(-c2ccccc2)c(=O)c2ccccc12,"inconclusive: 20.6 µM [falling, single point]",–
Cc1ccc(S(=O)(=O)c2nnn3c2nc(NC(C)C)c2cc(Cl)ccc23)cc1C,"inconclusive: 4.61 µM [falling, partial curve, poor fit]",–
CC(=O)Cc1nsc(NC(=O)c2oc(-c3ccccc3Cl)cc2C)n1,"inconclusive: 13 µM [falling, partial curve, poor fit]",–
Cc1cccc(-c2noc(-c3cccnc3NCc3ccc(Cl)cc3)n2)c1,"inconclusive: 29.1 µM [falling, single point]",–
CCCCNC(=O)CSc1nc2n[nH]c(C)c2c(=N)n1-c1cccc(Cl)c1C,"inconclusive: 23.1 µM [falling, single point]",–
COc1ccc2c(c1)sc1ncc(C(=O)NCc3ccccc3F)c(=O)n12,inactive,–
COc1ccc(S(=O)(=O)Nc2ccc3oc4c(c3c2)CCCC4)cc1,"inconclusive: 29.1 µM [falling, partial curve, poor fit]",–
CCOC(=O)c1cnc2c(C)cccc2c1NCc1ccco1,"inconclusive: 32.6 µM [falling, single point]",–
Cc1cc(Cl)ccc1OCC(=O)Nc1ccccc1N1CCOCC1,"inconclusive: 25.9 µM [falling, single point]",–
CCOC(=O)c1c(NC(=O)CN2C(=O)NC(C)(c3ccc(OC(F)F)cc3)C2=O)sc(C)c1C (configuration not stated),"inconclusive: 29.1 µM [falling, single point]",–
COc1ccc(OC)c(C2=NOC(C(=O)N3CCN(c4ccccc4)CC3)C2)c1 (configuration not stated),"inconclusive: 20.6 µM [falling, single point]",–
O=C(/C=C/c1cccnc1)/C=C/c1cccnc1,"inconclusive: 29.1 µM [falling, single point]",–
COc1ccc(/C=C2\SC(N3CCc4ccccc4C3)=NC2=O)cc1,inactive,–
CCN(CC)c1ccc(NC(=O)Nc2ccccc2)cc1,"inconclusive: 2.59 µM [activator, full curve]",–
C/C(Nc1ccc(C)cc1)=C(/C#N)C(N)=O,"inconclusive: 6.51 µM [activator, single point]",–
Cc1c(C(=O)N2CCN(c3ccccc3)CC2)oc2c(F)cccc12,inactive,–
COc1cccc(-c2nc(C(=O)NCC3CCCO3)cc3c2[nH]c2ccccc23)c1 (configuration not stated),active: 20.6 µM,–
COc1ccc(S(=O)(=O)N2CCN(Cc3ccc(Cl)cc3)CC2)cc1,"inconclusive: 18.4 µM [falling, single point]",–
O=C1NC(=O)/C(=C/c2ccco2)N1,inactive,–
NC(=O)C1CCN(c2nc(-c3ccccc3F)cs2)CC1,"inconclusive: 0.731 µM [activator, full curve]",–
CC(C)Oc1cccc(C(=O)C2CCCN(C(=O)c3csnn3)C2)c1 (configuration not stated),"inconclusive: 29.1 µM [activator, single point]",–
CCOC(=O)c1c(C)[nH]c(C)c1S(=O)(=O)NCC(=O)Nc1cccc(C#N)c1,"inconclusive: 6.51 µM [activator, single point]",–
COc1cc([N+](=O)[O-])ccc1NC(=O)CC1SC(=Nc2ccc(F)cc2)N(CCC2=CCCCC2)C1=O (configuration not stated),"inconclusive: 14.6 µM [falling, partial curve]",–

SMILES,Potency,"activity change, negative = inhibition"
Cc1nn(-c2ccc(N3CCCCC3)nn2)c(C)c1CCC(=O)Nc1ccc(F)cc1F,"inconclusive: 6.51 µM [activator, single point]",–
COC(=O)c1scc(-c2ccc(C)cc2)c1S(=O)(=O)N1CCN(c2ccccc2)CC1,"inconclusive: 32.6 µM [falling, single point]",–
O=C1c2ccccc2C(=O)N1CCc1nc(-c2ccc(Cl)cc2)no1,"inconclusive: 8.2 µM [falling, partial curve, poor fit]",–
CCN1CCN(C(=O)c2ccc(C(F)(F)F)cc2)CC1,"inconclusive: 6.51 µM [activator, single point]",–
O=C(O)C(=O)/C(=C\c1ccsc1)c1ccc2ccccc2n1,"inconclusive: 18.4 µM [activator, single point]",–
CCOC(=O)N1CCN(C2CCCN(C(=O)c3ccccc3N(C)C)C2)CC1 (configuration not stated),inactive,–
O=C(c1cccs1)N1CCN(c2nnc(-c3ccccc3)c3ccccc23)CC1,"inconclusive: 1.64 µM [falling, partial curve, poor fit]",–
Cc1ccc(NC(=O)C2CCN(S(=O)(=O)c3ccc4c(c3)NC(=O)C(C)S4)CC2)c(Cl)c1 (configuration not stated),active: 23.1 µM,–
CCOC(=O)C1=C(C)N=c2s/c(=C\c3ccc(C(=O)O)cc3)c(=O)n2C1c1ccc(OC)cc1OC (configuration not stated),"inconclusive: 20.6 µM [falling, partial curve, poor fit]",–
COc1cccc(C(=O)N/N=c2\oc3c(OC)cccc3cc2C(=O)NCc2ccccc2)c1,inactive,–
CN(Cc1ccccc1)C(=O)c1cccc(NC(=O)C2CCCN(C(=O)OC(C)(C)C)C2)c1 (configuration not stated),"inconclusive: 25.9 µM [falling, single point]",–
CC(C)(C)NS(=O)(=O)c1ccc(Oc2ncc(C(F)(F)F)cc2Cl)cc1,"inconclusive: 20.6 µM [falling, partial curve, poor fit]",–
CS(=O)(=O)c1ccc(Cl)c(NC(=O)C2CC(=O)N(c3ccc4c(c3)OCCO4)C2)c1 (configuration not stated),"inconclusive: 1.84 µM [falling, full curve, poor fit]",–
CCOC(=O)N1CCN(C(=O)CSc2nc3c(cnn3-c3ccc(C)cc3)c(=O)[nH]2)CC1,"inconclusive: 3.66 µM [falling, full curve]",–
Cc1ccccc1C(=O)N1CC(=O)Nc2ccc(Cl)cc2C1c1ccccc1 (configuration not stated),–,inactive: -2.26% [at 9.27 µM]
COc1ccc2ncc(S(=O)(=O)c3ccccc3)c(N3CCN(c4ccccc4)CC3)c2c1,inactive,–
CCC(=O)NC(c1cc(Cl)c2cccnc2c1O)C(C)C (configuration not stated),"inconclusive: 20.6 µM [falling, single point]",–
COc1ccc(CN(C)Cc2nc(Cc3ccccc3Cl)no2)cc1OC,"inconclusive: 18.4 µM [falling, single point]",–
O=C(COC(=O)c1cn(-c2ccccc2)nc1-c1cccs1)NC1CC1,"inconclusive: 16.4 µM [falling, single point]",–
CCN(CC)c1ccc(/C=N/NC(=O)CNC(=O)C2COc3ccccc3O2)c(O)c1 (configuration not stated),active: 23.1 µM,–
Clc1nc(Cl)nc(N(c2ccccc2)c2ccccc2)n1,inactive,–
O=C(CSC1CS(=O)(=O)c2cc([N+](=O)[O-])ccc21)NNC(=O)c1ccc(Cl)cc1 (configuration not stated),inactive,–
O=C(NC(=S)Nc1ccccc1N1CCOCC1)c1ccco1,inactive,–

# Rewritten as tab-separated lines: entries from further up
SMILES	Potency	activity change, negative = inhibition
CCOC(=O)N1CCN(C(=O)CSc2nc3c(cnn3-c3ccc(C)cc3)c(=O)[nH]2)CC1	inconclusive: 3.66 µM [falling, full curve]	–
Cc1ccccc1C(=O)N1CC(=O)Nc2ccc(Cl)cc2C1c1ccccc1 (configuration not stated)	–	inactive: -2.26% [at 9.27 µM]
COc1ccc2ncc(S(=O)(=O)c3ccccc3)c(N3CCN(c4ccccc4)CC3)c2c1	inactive	–
CCC(=O)NC(c1cc(Cl)c2cccnc2c1O)C(C)C (configuration not stated)	inconclusive: 20.6 µM [falling, single point]	–
COc1ccc(CN(C)Cc2nc(Cc3ccccc3Cl)no2)cc1OC	inconclusive: 18.4 µM [falling, single point]	–

# Remaining list, next part:

SMILES,Potency,"activity change, negative = inhibition"
CCOc1ccc(-c2cc(C)n3nc(C(N)=O)cc3n2)cc1,"inconclusive: 5.8 µM [falling, partial curve, poor fit]",–
O=C(COc1ccc(Cl)cc1)N1CCN(C(=O)c2cccs2)CC1,"inconclusive: 8.2 µM [falling, partial curve, poor fit]",–
CC(C)(C)NC(=O)C(c1ccc(-c2ccccc2)cc1)N(C[C@H]1CC[C@@H]([C@@H]2CC[C@H](CO)O2)O1)C(=O)c1ccc(C(C)(C)C)cc1 (some centres not stated),"inconclusive: 18.4 µM [falling, single point]",–
CCOC(=O)c1cn2c(C)cccc2n1,"inconclusive: 29.1 µM [activator, single point]",–
O=C(ONc1ccc(N=NC(=O)c2ccccc2O)cc1)c1ccccc1,"inconclusive: 32.6 µM [falling, single point]",–
Cc1ccsc1C1NC(=O)c2ccccc2N1 (configuration not stated),"inconclusive: 1.03 µM [falling, partial curve]",–
c1ccc2c(N3CCCCC3)ncnc2c1,"inconclusive: 11.6 µM [falling, partial curve, poor fit]",–
COc1ccc(NC(=O)Cn2cnc3c(cnn3-c3ccc(C)c(C)c3)c2=O)c(OC)c1,"inconclusive: 2.31 µM [falling, full curve, poor fit]",–
O=C(NCc1cccnc1)c1ccc(NC(=O)c2cccc([N+](=O)[O-])c2)cc1,active: 4.61 µM,–
Cc1nc2ccccc2nc(=O)c1NNc1ccccc1,"inconclusive: 14.6 µM [activator, single point]",–
Oc1ccc2ccccc2c1N=Nc1ccccn1,"inconclusive: 29.1 µM [falling, single point]",–
COc1ccc(OC)c(CNC(=O)c2ccc3c(c2)c(C)c(C)n3Cc2ccc(Cl)cc2)c1,inactive,–
COc1ccc(Cn2c(O)c(C=Nc3ccccc3C(=O)O)c3ccccc3c2=O)cc1,"inconclusive: 2.91 µM [falling, partial curve, poor fit]",–
Cc1cc(C(=O)Nc2ccccc2)oc(=O)c1,"inconclusive: 23.1 µM [activator, single point]",–
O=C(C1CCCN(S(=O)(=O)c2cccc3nsnc23)C1)N1CCN(c2ccccc2)CC1 (configuration not stated),"inconclusive: 9.2 µM [falling, partial curve]",–
Oc1ccc(-c2csc(-c3c[nH]c4ccccc34)n2)c(O)c1,"inconclusive: 16.4 µM [activator, partial curve]",–
CCOC(=O)Cc1cc(-c2ccc(F)cc2)nc2ccc3ccccc3c12,inactive,–
CCOC(=O)N1CCN(C(=O)CN(c2ccccc2F)S(=O)(=O)c2ccc(C)cc2)CC1,inactive,–
Cn1c(SCC(=O)N2CCCC2)nc2ccccc21,inactive,–
CN(Cc1c(F)cccc1Cl)c1ccc(S(=O)(=O)N2CCOCC2)cn1,inactive,–
Cn1nc(C(=O)Nc2cccnc2)c2ccccc2c1=O,"inconclusive: 1.46 µM [falling, full curve]",–
